Assay [1] has as its target human IL-17A (human). Kind of assay: competition ELISA: scFv coated, biotinylated IL-17A blocked by unlabeled IL-17A.
Assay [2] has as its target human IL-17A (human). Kind of assay: competitive ELISA: biotinylated human IL-17A preincubated with the scFv, then binding to coated IL-17RA detected (blocked ligand: IL-17RA) [B].

These are yes or no findings as the source states them, for the method shown. A result given as binding can be weak or reduced; the word gives no strength.

B1: PRO571 (humanized anti-IL-17A scFv, CDR graft of 27-31-C04) (scFv)
scFv: DIQMTQSPSSLSASVGDRVTITCQASESIYRYLSWYQQKPGKAPKLLIYLASTLTSGVPSRFSGSGSGTDFTLTISSLQPEDFATYYCQSNFGTASTTYYNTFGGGTKLTVLGGGGGSGGGGSGGGGSGGGGSEVQLVESGGGLVQPGGSLRLSCAASGFSFSGFYYMCWVRQAPGKGLEWIGCIDTGDGTTYYASWAKGRFTISRDNSKNTVYLQMNSLRAEDTAVYYCARDAAYGGYAYPAHGMDLWGQGTLVTVSS
Turning to B1, the binding entry in the assay with human IL-17A (human) [1] and with human IL-17A (human) [2] was “binds” in each case.

B2: PRO592 (humanized anti-IL-17A scFv, STR graft of 27-31-C04) (scFv)
scFv: DIQMTQSPSSLSASVGDRVTITCQASESIYRYLSWYQQKPGKAPKLLIYLASTLTSGVPSRFSGSGSGTDFTLTISSLQPEDFATYYCQSNFGTASTTYYNTFGGGTKLTVLGGGGGSGGGGSGGGGSGGGGSEVQLVESGGGLVQPGGSLTLSCAASGFSFSGFYYMCWVRQAPGKGLEWIGCIDTGDGTTYYASWAKGRFTISRDNSKNTVYLQMNSLRAEDTAVYYCARDAAYGGYAYPAHGMDLWGPGTLVTVSS
As for B2, the binding result with human IL-17A (human) [1] and with human IL-17A (human) [2] was “binds” each time.

(Values after patent US20220127350A1.)
